Laboratory results: PubChem BioAssay AID1259308 (NCATS, 2017)

Assay: 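Genes whose loss raises luciferase production in HEK293 cells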 (primary screen)
Cells: human HEK293 embryonic kidney cells stably expressing firefly luciferase (HEK-CMV-Luc2-Hygro)
Reagents: single siRNA against human genes, 0.8 pmol siRNA per well
Timing: 72 h
Read-out: 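Luciferase light (ONE-Glo) measured on one replicate plate set and viability (CellTiter-Glo) on the other, scaled to a negative control siRNA, with robust z-scores and luciferase per cell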
Reading the numbers: total luciferase, z-score: higher = more reporter protein produced
Active means: 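Active when the median/MAD z-score for overall luciferase is greater than 3; a gene was taken forward for validation with new siRNAs if at least two of its three siRNAs passed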
Meaning of the calls: active = raised luciferase; inactive = no rise
The whole screen tested about 59,000 reagents; shown is an unselected part. About 1,510 of them (2.6%) were called active. 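Calls use total luciferase alone and ignore viability, so some active siRNAs may act by altering cell number.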 Reagents against one gene are numbered here. Further read-outs or replicates are left out here. Reagent sequences are not shown.

NOL3 (nucleolar protein 3) #1 — total luciferase, z-score: -0.064; outcome: inactive
NOL3 (nucleolar protein 3) #2 — total luciferase, z-score: -1.65; outcome: inactive
NOL3 (nucleolar protein 3) #3 — total luciferase, z-score: -0.256; outcome: inactive
VSIG1 (V-set and immunoglobulin domain containing 1) #1 — total luciferase, z-score: 0.396; outcome: inactive
VSIG1 (V-set and immunoglobulin domain containing 1) #2 — total luciferase, z-score: 0.176; outcome: inactive
VSIG1 (V-set and immunoglobulin domain containing 1) #3 — total luciferase, z-score: 1; outcome: inactive
TMEM242 (transmembrane protein 242) #1 — total luciferase, z-score: -0.79; outcome: inactive
TMEM242 (transmembrane protein 242) #2 — total luciferase, z-score: 0.144; outcome: inactive
TMEM242 (transmembrane protein 242) #3 — total luciferase, z-score: -0.35; outcome: inactive

Next part, starting with the last 3 of the part before.
TMEM242 (transmembrane protein 242) #1 — total luciferase, z-score: -0.79; outcome: inactive
TMEM242 (transmembrane protein 242) #2 — total luciferase, z-score: 0.144; outcome: inactive
TMEM242 (transmembrane protein 242) #3 — total luciferase, z-score: -0.35; outcome: inactive
LSP1P4 (LSP1 pseudogene 4) #1 — total luciferase, z-score: -0.654; outcome: inactive
LSP1P4 (LSP1 pseudogene 4) #2 — total luciferase, z-score: 0.78; outcome: inactive
LSP1P4 (LSP1 pseudogene 4) #3 — total luciferase, z-score: 0.158; outcome: inactive
ZNF426 (zinc finger protein 426) #1 — total luciferase, z-score: -0.594; outcome: inactive
ZNF426 (zinc finger protein 426) #2 — total luciferase, z-score: 0.892; outcome: inactive
ZNF426 (zinc finger protein 426) #3 — total luciferase, z-score: 0.112; outcome: inactive
RRM2B #1 — total luciferase, z-score: -0.398; outcome: inactive
RRM2B #2 — total luciferase, z-score: -0.349; outcome: inactive
RRM2B #3 — total luciferase, z-score: -0.5; outcome: inactive
SSTR1 (somatostatin receptor 1) #1 — total luciferase, z-score: -0.182; outcome: inactive
SSTR1 (somatostatin receptor 1) #2 — total luciferase, z-score: -0.96; outcome: inactive
SSTR1 (somatostatin receptor 1) #3 — total luciferase, z-score: 0.112; outcome: inactive
